Positions count from the first letter of the chain named. Names and notes keep the numbering of the source. Results are given in words; binding and its absence hold for the method and conditions named. In cells and extracts the contact can be indirect. Some results given as binding are weak or reduced against the parent protein; the word gives no strength. Where a sequence is shown, tags or fusion partners need not be part of it.
T1: wild-type bestrophin-1 (BEST1), BEST1-CFP-Myc (human) (UniProt O76090)
T1 sequence: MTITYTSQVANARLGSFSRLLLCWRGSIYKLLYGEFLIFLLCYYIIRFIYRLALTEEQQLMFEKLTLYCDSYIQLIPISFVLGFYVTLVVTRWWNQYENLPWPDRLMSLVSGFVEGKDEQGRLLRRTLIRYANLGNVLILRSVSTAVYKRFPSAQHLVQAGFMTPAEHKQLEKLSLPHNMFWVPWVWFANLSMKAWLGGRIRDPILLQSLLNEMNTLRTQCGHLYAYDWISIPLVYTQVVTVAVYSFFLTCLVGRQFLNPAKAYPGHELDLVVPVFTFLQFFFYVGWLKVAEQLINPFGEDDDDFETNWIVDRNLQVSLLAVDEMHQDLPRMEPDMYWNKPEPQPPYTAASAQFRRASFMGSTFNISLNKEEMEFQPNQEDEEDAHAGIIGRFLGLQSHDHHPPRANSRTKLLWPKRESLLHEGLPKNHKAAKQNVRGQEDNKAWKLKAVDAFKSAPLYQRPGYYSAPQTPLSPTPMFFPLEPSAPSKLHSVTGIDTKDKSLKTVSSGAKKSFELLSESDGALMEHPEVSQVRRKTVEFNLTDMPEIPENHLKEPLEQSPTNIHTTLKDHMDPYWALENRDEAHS

B1: wild-type bestrophin-1 (BEST1), BEST1-CFP-Myc (protein, UniProt O76090 1-585)
chain: T1 sequence
B2: BEST1 D203A-YFP-His (protein, UniProt O76090 1-585)
chain: T1 sequence with D203A
B3: BEST1 I205T-YFP-His (protein, UniProt O76090 1-585)
chain: T1 sequence with I205T
B4: BEST1 Y236C-YFP-His (protein, UniProt O76090 1-585)
chain: T1 sequence with Y236C

Biological target: T1, wild-type bestrophin-1 (BEST1), BEST1-CFP-Myc (human)
Assay: co-IP; HEK293 cells co-transfected 1:1 with BEST1(WT)-CFP-Myc and BEST1(mutant or WT)-YFP-His; lysis in 150 mM NaCl, 50 mM Tris, 0.5% IGEPAL CA-630, pH 7.4; precipitated with Myc monoclonal antibody and Dynabeads anti-mouse IgG at 4°C; immunoblotted for His and Myc

Binder	binding
B1	binds
B2	binds
B3	binds
B4	binds

From PMC8169119
